Reference: patent US20170189504A1, “NOVEL PEPTIDES AND COMBINATION OF PEPTIDES FOR USE IN IMMUNOTHERAPY AGAINST VARIOUS CANCERS” (immatics biotechnologies GmbH, priority 2015, published 2017)

Assays:
source genes (mRNA) [1] = assay: Expression profiling of source genes by in-house RNASeq of tumor and normal tissues (Table 18, FIG. 2); set-up: species or system human; key: very highly over-expressed in tumors compared to a panel of normal tissues (+++); highly over-expressed in tumors compared to a panel of normal tissues (++); over-expressed in tumors compared to a panel of normal tissues (+); details: source gene of peptide; for Expression score OSCAR: esophageal cancer incl. gastric-esophageal junction (N = 11) vs panel of normal tissues; for Expression score GB: glioblastoma (N = 24) vs panel of normal tissues; for Expression score NHL: non-Hodgkin lymphoma (N = 10) vs panel of normal tissues; for Expression score OC: ovarian cancer (N = 12) vs panel of normal tissues; for Expression score SCLC: small cell lung cancer (N = 10) vs panel of normal tissues; for Expression score UBC: urinary bladder cancer (N = 10) vs panel of normal tissues; for Expression score BRCA: BRCA tumors vs panel of normal tissues; for Expression score NSCLC: non-small cell lung cancer (N = 11) vs panel of normal tissues
source genes (mRNA) [2] = assay: Gene and exon expression of source genes, TCGA tumor samples compared with normal tissue samples (Lonsdale, 2013) (Table 17); set-up: species or system human; details: tumor expression more than 2-fold above highest 75% percentile of high and medium risk normal tissues; for Target coverage: over-expression category of source gene, LAML: Acute Myeloid Leukemia (N = 173); for Target coverage: over-expression category of source gene, BLCA: Bladder urothelial carcinoma (N = 408); for Target coverage: over-expression category of source gene, BRCA: Breast cancer (N = 1104); for Target coverage: over-expression category of source gene, CHOL: Cholangiocarcinoma (N = 36); for Target coverage: over-expression category of source gene, KIRC: Clear cell kidney carcinoma (N = 534); for Target coverage: over-expression category of source gene, READ: Colon and rectal adenocarcinoma (N = 167); for Target coverage: over-expression category of source gene, COAD: Colon and rectal adenocarcinoma (N = 462); for Target coverage: over-expression category of source gene, ESCA: Esophageal cancer (N = 185); for Target coverage: over-expression category of source gene, GBM: Glioblastoma multiforme (N = 169); for Target coverage: over-expression category of source gene, LGG: Lower grade glioma (N = 534); for Target coverage: over-expression category of source gene, LUAD: Lung adenocarcinoma (N = 517); for Target coverage: over-expression category of source gene, LUSC: Lung squamous cell carcinoma (N = 503); for Target coverage: over-expression category of source gene, DLBC: Lymphoid neoplasm diffuse large B-cell lymphoma (N = 48); for Target coverage: over-expression category of source gene, OV: Ovarian serous cystadenocarcinoma (N = 309); for Target coverage: over-expression category of source gene, PAAD: Pancreatic ductal adenocarcinoma (N = 179); for Target coverage: over-expression category of source gene, KIRP: Papillary kidney carcinoma (N = 291); for Target coverage: over-expression category of source gene, SKCM: Skin cutaneous melanoma (N = 473); for Target coverage: over-expression category of source gene, STAD: Stomach adenocarcinoma (N = 415); for Target coverage: over-expression category of source gene, UCEC: Uterine corpus endometrial carcinoma (N = 546); for Target coverage: over-expression category of source gene, KICH: Kidney chromophobe (N = 66); for Target coverage: over-expression category of source gene, PRAD: Prostate adenocarcinoma (N = 498)
HLA-A*24 = assay: Identification and relative LC-MS quantitation of HLA-A*24-presented tumor-associated peptides on tissue samples (presentation profiles, Tables 14A, 14B, 16, FIG. 1); set-up: species or system human; key to Presentation score GC / Presentation score NSCLC / Presentation score PCA / Presentation score GB / Presentation score HCC / Presentation score RCC: specifically presented on tumors (++++); very highly over-presented on tumors compared to a panel of normal tissues (+++); highly over-presented on tumors compared to a panel of normal tissues (++); over-presented on tumors compared to a panel of normal tissues (+); details: for Presentation score NSCLC: non-small cell lung cancer (N = 91) vs panel of normal tissues (N = 70); for Peptide Presentation on cancer entities: Table 14A, HLA-A*24-binding tumor-associated peptides, cancer entities on which the peptide was found presented

Row | Substance | Expression score OSCAR (source genes (mRNA) [1]) | Expression score NHL (source genes (mRNA) [1]) | Expression score OC (source genes (mRNA) [1]) | Expression score SCLC (source genes (mRNA) [1]) | Target coverage: over-expression category of source gene, BLCA (source genes (mRNA) [2]) | Target coverage: over-expression category of source gene, BRCA (source genes (mRNA) [2]) | Target coverage: over-expression category of source gene, CHOL (source genes (mRNA) [2]) | Target coverage: over-expression category of source gene, KIRC (source genes (mRNA) [2]) | Target coverage: over-expression category of source gene, READ (source genes (mRNA) [2]) | Target coverage: over-expression category of source gene, COAD (source genes (mRNA) [2]) | Target coverage: over-expression category of source gene, ESCA (source genes (mRNA) [2]) | Target coverage: over-expression category of source gene, LUAD (source genes (mRNA) [2]) | Target coverage: over-expression category of source gene, LUSC (source genes (mRNA) [2]) | Target coverage: over-expression category of source gene, DLBC (source genes (mRNA) [2]) | Target coverage: over-expression category of source gene, OV (source genes (mRNA) [2]) | Target coverage: over-expression category of source gene, PAAD (source genes (mRNA) [2]) | Target coverage: over-expression category of source gene, SKCM (source genes (mRNA) [2]) | Target coverage: over-expression category of source gene, STAD (source genes (mRNA) [2]) | Target coverage: over-expression category of source gene, UCEC (source genes (mRNA) [2]) | Presentation score NSCLC (HLA-A*24; HLA-A*24 peptides) | other results
1 | 276: peptide found in TYMS (gene looked up) (VYGFQWRHF; listed as Homo sapiens) [compound 276] | + | ++ | + | ++ | A (>=50% of tumors above the cutoff) | B (>= 20% of tumors above the cutoff, but <50%) | B (>= 20% of tumors above the cutoff, but <50%) | A (>=50% of tumors above the cutoff) | B (>= 20% of tumors above the cutoff, but <50%) | A (>=50% of tumors above the cutoff) | A (>=50% of tumors above the cutoff) | B (>= 20% of tumors above the cutoff, but <50%) | A (>=50% of tumors above the cutoff) | A (>=50% of tumors above the cutoff) | A (>=50% of tumors above the cutoff) | C (>=5% of tumors above the cutoff, but <20%) | A (>=50% of tumors above the cutoff) | A (>=50% of tumors above the cutoff) | B (>= 20% of tumors above the cutoff, but <50%) | ++++ | Expression score AML (source genes (mRNA) [1]; acute myeloid leukemia (N = 11) vs panel of normal tissues): +; Expression score GB (source genes (mRNA) [1]): +; Expression score UBC (source genes (mRNA) [1]): +; Target coverage: over-expression category of source gene, LAML (source genes (mRNA) [2]): A (>=50% of tumors above the cutoff); Target coverage: over-expression category of source gene, GBM (source genes (mRNA) [2]): A (>=50% of tumors above the cutoff); Target coverage: over-expression category of source gene, LIHC (source genes (mRNA) [2]; Liver hepatocellular carcinoma (N = 374)): B (>= 20% of tumors above the cutoff, but <50%); Target coverage: over-expression category of source gene, LGG (source genes (mRNA) [2]): C (>=5% of tumors above the cutoff, but <20%); Target coverage: over-expression category of source gene, KIRP (source genes (mRNA) [2]): B (>= 20% of tumors above the cutoff, but <50%); Peptide Presentation on cancer entities (HLA-A*24): NSCLC
2 | 302: peptide found in IDO1 (gene looked up) (RYMPPAHRNF; listed as Homo sapiens) [compound 302] | ++ | + | +++ | ++ | B (>= 20% of tumors above the cutoff, but <50%) | B (>= 20% of tumors above the cutoff, but <50%) | C (>=5% of tumors above the cutoff, but <20%) | A (>=50% of tumors above the cutoff) | B (>= 20% of tumors above the cutoff, but <50%) | B (>= 20% of tumors above the cutoff, but <50%) | B (>= 20% of tumors above the cutoff, but <50%) | A (>=50% of tumors above the cutoff) | A (>=50% of tumors above the cutoff) | A (>=50% of tumors above the cutoff) | A (>=50% of tumors above the cutoff) | C (>=5% of tumors above the cutoff, but <20%) | B (>= 20% of tumors above the cutoff, but <50%) | B (>= 20% of tumors above the cutoff, but <50%) | A (>=50% of tumors above the cutoff) | ++++ | Expression score BRCA (source genes (mRNA) [1]): +; Expression score NSCLC (source genes (mRNA) [1]): +++; Expression score PC (source genes (mRNA) [1]; pancreatic cancer (N = 26) vs panel of normal tissues): +; Expression score RCC (source genes (mRNA) [1]; renal cell carcinoma (N = 10) vs panel of normal tissues): +; Expression score UBC (source genes (mRNA) [1]): +; Expression score UEC (source genes (mRNA) [1]; uterine cancer (N = 10) vs panel of normal tissues): ++; Target coverage: over-expression category of source gene, KICH (source genes (mRNA) [2]): C (>=5% of tumors above the cutoff, but <20%); Target coverage: over-expression category of source gene, PRAD (source genes (mRNA) [2]): C (>=5% of tumors above the cutoff, but <20%); Presentation score GC (HLA-A*24; HLA-A*24 peptides, gastric cancer (N = 44) vs panel of normal tissues (N = 70)): ++++; Peptide Presentation on cancer entities (HLA-A*24): GC, NSCLC
3 | 281: peptide found in PRKDC (gene looked up) (PYRLIFEKF; listed as Homo sapiens) [compound 281] | + | + | + | + | B (>= 20% of tumors above the cutoff, but <50%) | A (>=50% of tumors above the cutoff) | C (>=5% of tumors above the cutoff, but <20%) | C (>=5% of tumors above the cutoff, but <20%) | B (>= 20% of tumors above the cutoff, but <50%) | B (>= 20% of tumors above the cutoff, but <50%) | A (>=50% of tumors above the cutoff) | B (>= 20% of tumors above the cutoff, but <50%) | A (>=50% of tumors above the cutoff) | C (>=5% of tumors above the cutoff, but <20%) | B (>= 20% of tumors above the cutoff, but <50%) | C (>=5% of tumors above the cutoff, but <20%) | A (>=50% of tumors above the cutoff) | A (>=50% of tumors above the cutoff) | C (>=5% of tumors above the cutoff, but <20%) | +++ | Expression score BRCA (source genes (mRNA) [1]): +; Expression score CRC (source genes (mRNA) [1]; colorectal cancer (N = 20) vs panel of normal tissues): +; Expression score GBC_CCC (source genes (mRNA) [1]; gallbladder adenocarcinoma and cholangiocarcinoma (N = 3) vs panel of normal tissues): +; Expression score GB (source genes (mRNA) [1]): +; Expression score NSCLC (source genes (mRNA) [1]): +; Target coverage: over-expression category of source gene, LAML (source genes (mRNA) [2]): A (>=50% of tumors above the cutoff); Target coverage: over-expression category of source gene, GBM (source genes (mRNA) [2]): C (>=5% of tumors above the cutoff, but <20%); Target coverage: over-expression category of source gene, KICH (source genes (mRNA) [2]): C (>=5% of tumors above the cutoff, but <20%); Target coverage: over-expression category of source gene, LGG (source genes (mRNA) [2]): B (>= 20% of tumors above the cutoff, but <50%); Target coverage: over-expression category of source gene, KIRP (source genes (mRNA) [2]): C (>=5% of tumors above the cutoff, but <20%); Target coverage: over-expression category of source gene, PRAD (source genes (mRNA) [2]): C (>=5% of tumors above the cutoff, but <20%); Presentation score HCC (HLA-A*24; HLA-A*24 peptides, hepatocellular carcinoma (N = 15) vs panel of normal tissues (N = 70)): +++; Peptide Presentation on cancer entities (HLA-A*24): NSCLC, HCC

For some assays here: Expression grades refer to the transcript from which the peptide derives; gene names, where given, were looked up from the sequence.
